# In all, about 580,000 compounds went through this assay and about 6,100 (1.1%) were called active. This list was built around the results that the source calls inconclusive (neither active nor inactive); the mix of calls is not that of the screen. Calls come from the whole dose curve; as a rule, active = well fitted inhibition curve with a large enough effect; inconclusive = small, poorly fitted or top-dose-only effect, or another doubt; inactive = no such curve, though single readings can be large or run the other way. Potencies beside an inconclusive call are fits to weak or partial responses and may not hold up.
# The chains behind the UniProt entries cited, without tags or fusion partners. Where a name states a change or a piece, a line headed by the entry shows the natural chain unless it says otherwise.
# UniProt P18054: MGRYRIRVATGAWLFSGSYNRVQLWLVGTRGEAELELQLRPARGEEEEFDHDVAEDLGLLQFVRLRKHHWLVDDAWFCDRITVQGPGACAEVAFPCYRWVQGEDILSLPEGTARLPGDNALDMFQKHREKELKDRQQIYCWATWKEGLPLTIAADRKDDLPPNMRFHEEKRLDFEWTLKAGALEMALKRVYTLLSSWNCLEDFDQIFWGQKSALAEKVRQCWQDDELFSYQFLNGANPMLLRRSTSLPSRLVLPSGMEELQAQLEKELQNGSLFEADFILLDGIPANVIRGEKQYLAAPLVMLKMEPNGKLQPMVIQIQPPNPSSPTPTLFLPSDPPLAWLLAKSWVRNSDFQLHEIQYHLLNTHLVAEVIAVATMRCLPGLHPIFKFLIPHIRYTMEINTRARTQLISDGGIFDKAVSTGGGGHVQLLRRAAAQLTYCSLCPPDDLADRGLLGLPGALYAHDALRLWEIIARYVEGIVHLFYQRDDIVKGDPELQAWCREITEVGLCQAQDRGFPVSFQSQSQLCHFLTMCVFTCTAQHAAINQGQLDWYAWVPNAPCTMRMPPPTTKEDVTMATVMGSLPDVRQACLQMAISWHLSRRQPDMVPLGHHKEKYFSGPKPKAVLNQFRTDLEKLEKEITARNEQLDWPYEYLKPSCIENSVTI
# Biological target: Polyunsaturated fatty acid lipoxygenase ALOX12 (Homo sapiens) (UniProt P18054)
# Assay: Primary qHTS assay for inhibitors of human arachidonate 12S-lipoxygenase (ALOX12): Round 2
# Details: purified 12hLO, xylenol orange hydroperoxide absorbance; activity change, negative = inhibition: at 108 µM (top of the series) unless noted
# How it was run: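 Purified human 12hLO (150 nM final) in 25 mM Hepes, 0.01% Triton X-100, pH 7.0 was preincubated 15 min at room temperature with compound. Then 40 uM arachidonic acid was added, 30 min. Hydroperoxide was read by Fe-XO absorbance ratio 573/405 nm.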
# % is set by controls: 0 for no effect and ±100 for the full control effect; potency is the fitted concentration of half-maximal effect.
SMILES,"activity change, negative = inhibition",Potency
Cn1cnc(S(=O)(=O)N2CCCCC2c2nc(-c3cnccn3)n[nH]2)c1 (stereo not given),inactive: 2.74%,–
OCCCNCc1cc2ccc(F)cc2nc1N1CCN(c2cccc(Cl)c2)CC1,–,"inconclusive: 112 µM [inhibitor, single point]"
Cc1ccc(S(=O)(=O)c2nnn3c2nc(Nc2ccc(C(C)C)cc2)c2sccc23)cc1C,inactive: 0%,–
CN1CCN(C(=S)NC(=O)c2ccc(Cl)cc2)CC1,–,"inconclusive: 35.5 µM [inhibitor, partial curve, poor fit]"
COc1cc(OC)cc(C(=O)Nc2nc(CC(=O)NCCc3ccccc3)cs2)c1,–,"inconclusive: 89.1 µM [inhibitor, single point]"
C=CCN=C1NC(c2cccc(F)c2)C(C(=O)OC)=C(C)N1Cc1ccccc1C(F)(F)F (stereo not given),–,"inconclusive: 89.1 µM [inhibitor, single point]"
CCN(CC(=O)Nc1c(F)cccc1F)C(=O)c1cccc(-n2cnnn2)c1,–,"inconclusive: 112 µM [inhibitor, partial curve, poor fit]"
CC1CC(C)CN(C(=O)C(C)N(C)CC(=O)Nc2ccc(Cl)cc2)C1 (stereo not given),–,"inconclusive: 2.82 µM [inhibitor, full curve, poor fit]"
CCn1cc(CN2CCCC(CO)(Cc3ccc(F)cc3)C2)c2ccccc21 (stereo not given),–,"inconclusive: 31.6 µM [inhibitor, partial curve, poor fit]"
Cc1nc(C)c(CC(=O)N2CCCC(C)(Cc3ccc4c(c3)OCO4)C2)s1 (stereo not given),–,"inconclusive: 56.2 µM [inhibitor, partial curve, poor fit]"
CCCSc1cc(NCCOC(=O)CCC)c([N+](=O)[O-])c2nonc12,–,"inconclusive: 79.4 µM [inhibitor, partial curve, poor fit]"
O=C(COc1ccc(Cl)cc1Br)Nc1ncn[nH]1,inactive: 2.21%,–
CCOC(=O)C1C(c2ccc([N+](=O)[O-])cc2)C2C(=O)NN=C2CC1(C)O (stereo not given),–,"inconclusive: 100 µM [inhibitor, partial curve, poor fit]"
c1ccc(Nc2scc(-c3ccccc3)[n+]2Cc2ccco2)cc1,–,"inconclusive: 25.1 µM [inhibitor, partial curve, poor fit]"
CCCC[n+]1ccn(-c2nc3c([N+](=O)[O-])cccc3n2C)c1,–,"inconclusive: 44.7 µM [inhibitor, partial curve, poor fit]"
O=C(Nc1ccc(Cl)cc1)c1nccnc1-c1nc2ccccc2s1,inactive: -0.537%,–
CC(=O)c1cc(CCC(=O)OC(C)C(=O)C23CC4CC(CC(C4)C2)C3)oc1C (stereo not given),–,"inconclusive: 39.8 µM [inhibitor, partial curve, poor fit]"
Cc1ccc2[nH]c3c(c2c1)CN(C(=O)CN1CCN(C(=O)c2ccco2)CC1)CC3,–,"inconclusive: 39.8 µM [inhibitor, partial curve, poor fit]"
CCC(C)(C)C(=O)N1CCC2(CC1)CC(N(Cc1ccc(F)cc1)C1CC1)CCO2 (stereo not given),inactive: 1.08%,–
CCc1ccc(/C=N/O)cc1,inactive: -27.9%,–
CC[C@H]1c2[nH]c3ccc(C(C)C)cc3c2[C@@H]2CCN3C(=O)CCC[C@H]1[C@H]23,–,"inconclusive: 50.1 µM [inhibitor, partial curve, poor fit]"
COc1cc(/C=N/n2c(C3CCCCC3)n[nH]c2=S)cc(OC)c1O,–,"inconclusive: 35.5 µM [inhibitor, single point]"

SMILES,"activity change, negative = inhibition",Potency
O=C(CSC1=NS(=O)(=O)c2cc(Cl)ccc2N1)Nc1ccccc1F,–,"inconclusive: 44.7 µM [inhibitor, partial curve, poor fit]"
Cn1c(SCC(=O)Nc2ccc3c(c2)oc2ccccc23)nnc1-c1ccccc1,–,"inconclusive: 14.1 µM [inhibitor, partial curve]"
CCCCNC(=O)c1ccc(NC(=O)Nc2ccccc2)cc1,–,"inconclusive: 4.47 µM [inhibitor, full curve, poor fit]"
CN1c2cc(C(=O)Nc3ccc4c(c3)CCC4)ccc2C(=O)N2CCCCCC21 (stereo not given),–,"inconclusive: 28.2 µM [inhibitor, full curve, poor fit]"
O=C(CSc1nc(C2CC2)nc2ccccc12)NCc1ccccc1,–,"inconclusive: 31.6 µM [inhibitor, partial curve, poor fit]"
Cc1ccc(CN(C)C(=O)c2ccc(S(=O)(=O)N(C)c3ccccc3)cc2)o1,inactive: -25.3%,–
CC(C)OC(=O)CC(=O)CSc1nc2c(cc1C#N)CCCC2,–,"inconclusive: 50.1 µM [inhibitor, partial curve, poor fit]"
COc1cc(NC2c3ncccc3C(=O)N2Cc2ccco2)cc(OC)c1 (stereo not given),–,"inconclusive: 28.2 µM [inhibitor, partial curve, poor fit]"
CC(C)C[C@H]1CNC(=O)C(=O)N1CC1CCN(CCc2ccc(-c3ccccc3)cc2)CC1,–,"inconclusive: 141 µM [inhibitor, partial curve, poor fit]"
CCCNc1c(NC(=O)Nc2cccc(OC)c2)c(=O)oc2ccccc12,inactive: -22.6%,–
CCOC(=O)Cc1csc(N/N=C\c2ccc(N(C)C)cc2)n1,–,"inconclusive: 112 µM [inhibitor, single point]"
CSCCC(NC(=O)c1ccccc1Cl)C(=O)Nc1cc(C)cc(C)c1 (stereo not given),inactive: -15.8%,–
COc1ccc(-c2[nH]nc3c2C(c2ccc4c(c2)OCO4)CC(=O)O3)cc1 (stereo not given),–,active: 44.7 µM
CC(=O)N1N=C(c2cccc([N+](=O)[O-])c2)OC1c1ccc(Cl)cc1Cl (stereo not given),inactive: -11.3%,–
O=C(NC1CC1)C1COC2(CCN(C(=O)Cc3cccs3)CC2)N1C(=O)c1ccc(F)cc1 (stereo not given),–,"inconclusive: 7.94 µM [inhibitor, full curve, poor fit]"
CC(Sc1nc(-c2ccccc2)c(C#N)c(=O)[nH]1)C(=O)Nc1ccc(F)cc1 (stereo not given),–,"inconclusive: 50.1 µM [inhibitor, partial curve, poor fit]"
CCCOc1ccc(C2C(=O)N(C3CCC(C)CC3)CC(=O)N2Cc2ccc(F)cc2)cc1OC (stereo not given),–,"inconclusive: 141 µM [inhibitor, partial curve, poor fit]"
CC(C)(C)c1ccc(C(=O)NCCCNC(=O)c2cc3ccccc3[nH]2)cc1,inactive: -11.6%,–
COc1ccc(CCc2nc3nccc(-c4ccsc4)n3n2)cc1OC,inactive: 50%,–
Cc1ccc(NNC(=O)c2cc(C(C)(C)C)nn2Cc2ccccc2)cc1,–,"inconclusive: 35.5 µM [inhibitor, partial curve, poor fit]"
COc1ccc(Cn2c(C3CCN(C(=O)c4cccc(Cl)c4)CC3)n[nH]c2=O)cc1,–,"inconclusive: 79.4 µM [inhibitor, single point]"
Cc1nn(C)c(Cl)c1S(=O)(=O)N1CCC(CO)(CCc2ccccc2)CC1,inactive: 7.21%,–

# Some of these compounds in order of number of heavy atoms, high to low:
SMILES,"activity change, negative = inhibition",Potency
Cn1c(SCC(=O)Nc2ccc3c(c2)oc2ccccc23)nnc1-c1ccccc1,–,"inconclusive: 14.1 µM [inhibitor, partial curve]"
Cc1ccc(NNC(=O)c2cc(C(C)(C)C)nn2Cc2ccccc2)cc1,–,"inconclusive: 35.5 µM [inhibitor, partial curve, poor fit]"
CC(C)OC(=O)CC(=O)CSc1nc2c(cc1C#N)CCCC2,–,"inconclusive: 50.1 µM [inhibitor, partial curve, poor fit]"

# (more compounds)

SMILES,"activity change, negative = inhibition",Potency
CCCOc1ccc(/C(O)=C2/C(=O)C(=O)N(CCCn3ccnc3)C2c2cccnc2)cc1 (stereo not given),–,"inconclusive: 126 µM [inhibitor, partial curve, poor fit]"
COc1ccc(CNC(=O)C(C)OC(=O)CCN2C(=O)C3CC=CCC3C2=O)cc1 (stereo not given),–,"inconclusive: 112 µM [inhibitor, partial curve, poor fit]"
CCOc1cc(/C=N/Nc2ncnc(Cl)c2N)ccc1O,inactive: -14%,–
CC(=O)C1=C(C)NC(C)=C(C(C)=O)C1c1cn(-c2ccccc2)nc1-c1cccs1,–,"inconclusive: 39.8 µM [inhibitor, partial curve, poor fit]"
COc1ccccc1C1(CC#N)CCOC(C)(C)C1 (stereo not given),inactive: -36%,–
COc1ccc(/C=C2\SC(=S)N(C(C(=O)O)c3ccccc3)C2=O)c(OC)c1 (stereo not given),–,"inconclusive: 35.5 µM [inhibitor, partial curve, poor fit]"
CC(C)(C)c1ccc(CN2C3=NCCCN3c3ccccc32)cc1,inactive: -25.4%,–
Cc1ccc(CC(=O)NNC(=O)c2ccncc2)cc1C,–,"inconclusive: 50.1 µM [inhibitor, partial curve, poor fit]"
CCc1nc(SCC(=O)N2CCc3cc(OC)c(OC)cc3C2)c(C#N)cc1C,–,"inconclusive: 44.7 µM [inhibitor, partial curve, poor fit]"
CCOC(=O)c1cc(-c2ccc(F)cc2)n(CCC(=O)Nc2ccccc2OC)c1C,–,"inconclusive: 126 µM [inhibitor, partial curve, poor fit]"
N#Cc1ccc2c(=O)n(-c3ccccc3)sc2c1,–,active: 0.447 µM
COc1cccc(CCC(=O)N2CCC(Oc3ncccc3C(=O)N3CCCCC3)C2)c1 (stereo not given),inactive: 52.5%,–
COC(=O)c1ccc2nc(C)cc(Nc3ccc(O)cc3)c2c1,–,"inconclusive: 79.4 µM [inhibitor, partial curve, poor fit]"
O=c1c2ccsc2ncn1Cc1coc(-c2cccc(Cl)c2)n1,inactive: 3.53%,–
Cc1ccc(OCC(=O)NNC(=S)NC(=O)COc2ccccc2)cc1,–,active: 11.2 µM
COc1ccccc1NC(=O)C(C)OC(=O)C(C)SCC(=O)Nc1ccc(C)cc1 (stereo not given),–,"inconclusive: 79.4 µM [inhibitor, single point]"
Cc1ccc(CSc2nc(=O)c3c(C)cc(C)nc3n2C2CC2)cc1,–,"inconclusive: 112 µM [inhibitor, partial curve, poor fit]"
CCOC(=O)c1ccc(NC2=CC(c3ccc(Br)cc3)N(c3ccc(C(=O)OCC)cc3)C2=O)cc1 (stereo not given),inactive: 0%,–
COc1cccc(C(=O)Nc2ccc3c(c2)CN(Cc2cccc(OC)c2OC)C(=O)CO3)c1,inactive: 25.6%,–
Cc1ccc(-c2[nH]c(=O)n3ccncc23)s1,–,"inconclusive: 25.1 µM [inhibitor, partial curve, poor fit]"
Cc1cccc(Oc2nc3c(C)cccn3c(=O)c2/C=C(\C#N)c2nc3ccccc3s2)c1,–,"inconclusive: 31.6 µM [inhibitor, partial curve, poor fit]"
